{
  "source": "patent US20180169117A1",
  "about": "“PHARMACEUTICAL FORMULATION COMPRISING A SUBSTITUTED PHENYL - (1,3-DIHYDRO-ISOINDOL-2-YL) - METHANONE” (OTSUKA PHARMACEUTICAL CO., LTD., priority 2014, published 2018)",
  "origin": "cited, not measured here",
  "system": "EGFR-mutant cell lines",
  "settings": "cited from earlier work",
  "note": "At least one compound was matched to its structure with a doubt left.",
  "data": [
    {"smiles": "COC1=C2C[C@@H](C)C[C@H](OC)[C@H](O)[C@@H](C)/C=C(\\C)[C@H](OC(N)=O)[C@@H](OC)/C=C\\C=C(/C)C(=O)NC(=CC1=O)C2=O", "note": "[geldanamycin]", "values": [
      {"measurement": "effect on phospho-Akt, cyclin D1 and apoptosis", "value": "marked depletion of phospho-Akt and cyclin D1 as well as apoptosis"}
    ]}
  ]
}
